From the supplement of paper PMC10849652
This is one part of the list.

The chains behind the UniProt entries cited, without tags or fusion partners. Where a name states a change or a piece, a line headed by the entry shows the natural chain unless it says otherwise.
UniProt Q8N6M3: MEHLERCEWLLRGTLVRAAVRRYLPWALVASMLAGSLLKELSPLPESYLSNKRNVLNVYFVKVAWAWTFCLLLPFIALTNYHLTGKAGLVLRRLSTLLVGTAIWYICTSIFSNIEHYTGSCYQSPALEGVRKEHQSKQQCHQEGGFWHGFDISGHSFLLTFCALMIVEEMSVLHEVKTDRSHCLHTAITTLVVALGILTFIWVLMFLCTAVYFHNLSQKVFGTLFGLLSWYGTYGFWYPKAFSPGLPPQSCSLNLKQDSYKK
UniProt Q96PY5, whole entry, looked up: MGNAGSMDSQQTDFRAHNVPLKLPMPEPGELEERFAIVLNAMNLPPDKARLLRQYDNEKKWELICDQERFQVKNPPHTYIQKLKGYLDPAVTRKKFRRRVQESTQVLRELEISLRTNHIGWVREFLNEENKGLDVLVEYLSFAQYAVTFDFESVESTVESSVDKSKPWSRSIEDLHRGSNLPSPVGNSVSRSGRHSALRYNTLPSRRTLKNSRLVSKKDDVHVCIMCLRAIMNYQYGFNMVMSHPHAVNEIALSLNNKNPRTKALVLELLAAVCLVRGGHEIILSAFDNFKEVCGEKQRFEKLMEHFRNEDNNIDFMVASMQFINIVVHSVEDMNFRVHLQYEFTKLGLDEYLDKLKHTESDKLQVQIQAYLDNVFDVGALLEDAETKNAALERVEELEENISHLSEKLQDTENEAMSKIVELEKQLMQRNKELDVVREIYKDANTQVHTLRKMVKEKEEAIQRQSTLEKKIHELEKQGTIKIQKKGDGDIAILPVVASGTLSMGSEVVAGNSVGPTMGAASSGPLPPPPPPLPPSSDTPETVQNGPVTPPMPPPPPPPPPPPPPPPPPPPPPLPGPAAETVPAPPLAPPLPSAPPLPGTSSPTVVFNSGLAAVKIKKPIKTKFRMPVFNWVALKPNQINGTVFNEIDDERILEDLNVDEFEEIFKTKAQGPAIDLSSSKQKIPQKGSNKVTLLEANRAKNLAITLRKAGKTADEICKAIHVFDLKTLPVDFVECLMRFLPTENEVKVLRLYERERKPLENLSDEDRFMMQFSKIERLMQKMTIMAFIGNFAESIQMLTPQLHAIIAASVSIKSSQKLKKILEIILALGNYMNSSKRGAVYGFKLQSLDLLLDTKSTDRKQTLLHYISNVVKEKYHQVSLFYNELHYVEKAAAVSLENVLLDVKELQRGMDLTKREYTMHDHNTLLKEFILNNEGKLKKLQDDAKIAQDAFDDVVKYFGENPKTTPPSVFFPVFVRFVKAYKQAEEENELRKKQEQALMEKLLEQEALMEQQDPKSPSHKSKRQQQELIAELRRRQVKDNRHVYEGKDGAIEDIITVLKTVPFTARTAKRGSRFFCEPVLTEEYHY
UniProt Q4L180: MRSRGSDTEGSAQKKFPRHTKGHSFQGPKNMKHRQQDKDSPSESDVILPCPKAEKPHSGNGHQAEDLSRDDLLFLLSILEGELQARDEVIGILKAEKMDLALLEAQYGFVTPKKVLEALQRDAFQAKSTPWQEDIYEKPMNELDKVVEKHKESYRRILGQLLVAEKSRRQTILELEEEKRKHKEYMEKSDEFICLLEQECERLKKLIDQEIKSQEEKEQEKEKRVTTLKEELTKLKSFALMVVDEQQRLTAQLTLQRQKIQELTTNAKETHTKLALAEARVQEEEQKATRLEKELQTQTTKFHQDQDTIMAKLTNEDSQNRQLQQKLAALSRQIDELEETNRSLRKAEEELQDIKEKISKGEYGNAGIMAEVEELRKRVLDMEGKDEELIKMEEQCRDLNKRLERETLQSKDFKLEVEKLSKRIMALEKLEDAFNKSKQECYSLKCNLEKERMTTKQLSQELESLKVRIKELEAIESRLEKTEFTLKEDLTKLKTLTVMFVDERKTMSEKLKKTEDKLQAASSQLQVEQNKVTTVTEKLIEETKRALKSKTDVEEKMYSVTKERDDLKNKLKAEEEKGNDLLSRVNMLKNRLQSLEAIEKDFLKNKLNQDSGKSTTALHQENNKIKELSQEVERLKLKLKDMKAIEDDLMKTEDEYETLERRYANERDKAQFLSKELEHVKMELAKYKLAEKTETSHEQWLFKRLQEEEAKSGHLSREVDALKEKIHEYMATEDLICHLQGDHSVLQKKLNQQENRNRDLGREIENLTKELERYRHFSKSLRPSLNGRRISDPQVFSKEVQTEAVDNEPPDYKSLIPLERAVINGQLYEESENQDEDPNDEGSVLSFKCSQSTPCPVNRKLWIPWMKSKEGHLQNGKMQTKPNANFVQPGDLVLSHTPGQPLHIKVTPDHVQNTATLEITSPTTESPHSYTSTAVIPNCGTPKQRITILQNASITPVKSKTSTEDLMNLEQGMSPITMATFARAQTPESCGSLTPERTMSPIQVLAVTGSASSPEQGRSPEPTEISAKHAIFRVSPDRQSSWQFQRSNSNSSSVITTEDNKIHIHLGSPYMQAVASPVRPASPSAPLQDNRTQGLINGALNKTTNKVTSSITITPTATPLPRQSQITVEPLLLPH
UniProt Q6UN15: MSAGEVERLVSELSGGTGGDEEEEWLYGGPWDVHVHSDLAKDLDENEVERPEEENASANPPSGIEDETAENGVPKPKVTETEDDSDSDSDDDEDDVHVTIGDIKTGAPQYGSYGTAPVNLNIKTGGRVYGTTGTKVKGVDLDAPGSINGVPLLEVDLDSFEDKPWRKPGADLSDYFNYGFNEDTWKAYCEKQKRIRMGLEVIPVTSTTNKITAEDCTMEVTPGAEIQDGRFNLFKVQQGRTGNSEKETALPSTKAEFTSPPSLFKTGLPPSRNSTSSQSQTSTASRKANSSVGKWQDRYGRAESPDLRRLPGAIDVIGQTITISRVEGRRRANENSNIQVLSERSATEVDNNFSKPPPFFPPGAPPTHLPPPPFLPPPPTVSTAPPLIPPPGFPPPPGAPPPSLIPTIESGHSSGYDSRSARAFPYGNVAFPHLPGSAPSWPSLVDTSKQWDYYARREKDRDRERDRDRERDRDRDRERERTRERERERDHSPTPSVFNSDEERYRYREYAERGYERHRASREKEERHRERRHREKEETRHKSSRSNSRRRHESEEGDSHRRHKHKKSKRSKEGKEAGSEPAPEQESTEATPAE
UniProt Q9H4M3: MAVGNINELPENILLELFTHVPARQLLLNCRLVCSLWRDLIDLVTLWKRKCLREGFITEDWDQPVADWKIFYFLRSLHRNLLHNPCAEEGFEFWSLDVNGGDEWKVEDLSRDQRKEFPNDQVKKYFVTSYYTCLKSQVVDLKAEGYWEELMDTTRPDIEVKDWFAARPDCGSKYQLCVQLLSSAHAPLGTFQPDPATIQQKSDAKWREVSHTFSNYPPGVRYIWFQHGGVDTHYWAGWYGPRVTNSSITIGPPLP
UniProt P39748, whole entry, looked up: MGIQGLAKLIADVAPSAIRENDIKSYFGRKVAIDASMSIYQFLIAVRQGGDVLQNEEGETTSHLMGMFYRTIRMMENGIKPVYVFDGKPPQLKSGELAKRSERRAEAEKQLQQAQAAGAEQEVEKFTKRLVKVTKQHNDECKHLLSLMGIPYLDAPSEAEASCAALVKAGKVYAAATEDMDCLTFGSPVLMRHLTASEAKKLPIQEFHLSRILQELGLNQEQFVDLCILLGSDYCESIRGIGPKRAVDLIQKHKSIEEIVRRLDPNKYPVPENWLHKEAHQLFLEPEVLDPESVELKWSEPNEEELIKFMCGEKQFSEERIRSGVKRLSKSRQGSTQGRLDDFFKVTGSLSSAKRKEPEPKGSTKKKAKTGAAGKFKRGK
UniProt P26885: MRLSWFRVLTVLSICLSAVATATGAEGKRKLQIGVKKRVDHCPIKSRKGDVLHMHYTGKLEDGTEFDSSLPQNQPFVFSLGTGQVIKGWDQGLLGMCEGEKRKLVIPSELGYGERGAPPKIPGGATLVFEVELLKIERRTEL
UniProt Q6ZRV2: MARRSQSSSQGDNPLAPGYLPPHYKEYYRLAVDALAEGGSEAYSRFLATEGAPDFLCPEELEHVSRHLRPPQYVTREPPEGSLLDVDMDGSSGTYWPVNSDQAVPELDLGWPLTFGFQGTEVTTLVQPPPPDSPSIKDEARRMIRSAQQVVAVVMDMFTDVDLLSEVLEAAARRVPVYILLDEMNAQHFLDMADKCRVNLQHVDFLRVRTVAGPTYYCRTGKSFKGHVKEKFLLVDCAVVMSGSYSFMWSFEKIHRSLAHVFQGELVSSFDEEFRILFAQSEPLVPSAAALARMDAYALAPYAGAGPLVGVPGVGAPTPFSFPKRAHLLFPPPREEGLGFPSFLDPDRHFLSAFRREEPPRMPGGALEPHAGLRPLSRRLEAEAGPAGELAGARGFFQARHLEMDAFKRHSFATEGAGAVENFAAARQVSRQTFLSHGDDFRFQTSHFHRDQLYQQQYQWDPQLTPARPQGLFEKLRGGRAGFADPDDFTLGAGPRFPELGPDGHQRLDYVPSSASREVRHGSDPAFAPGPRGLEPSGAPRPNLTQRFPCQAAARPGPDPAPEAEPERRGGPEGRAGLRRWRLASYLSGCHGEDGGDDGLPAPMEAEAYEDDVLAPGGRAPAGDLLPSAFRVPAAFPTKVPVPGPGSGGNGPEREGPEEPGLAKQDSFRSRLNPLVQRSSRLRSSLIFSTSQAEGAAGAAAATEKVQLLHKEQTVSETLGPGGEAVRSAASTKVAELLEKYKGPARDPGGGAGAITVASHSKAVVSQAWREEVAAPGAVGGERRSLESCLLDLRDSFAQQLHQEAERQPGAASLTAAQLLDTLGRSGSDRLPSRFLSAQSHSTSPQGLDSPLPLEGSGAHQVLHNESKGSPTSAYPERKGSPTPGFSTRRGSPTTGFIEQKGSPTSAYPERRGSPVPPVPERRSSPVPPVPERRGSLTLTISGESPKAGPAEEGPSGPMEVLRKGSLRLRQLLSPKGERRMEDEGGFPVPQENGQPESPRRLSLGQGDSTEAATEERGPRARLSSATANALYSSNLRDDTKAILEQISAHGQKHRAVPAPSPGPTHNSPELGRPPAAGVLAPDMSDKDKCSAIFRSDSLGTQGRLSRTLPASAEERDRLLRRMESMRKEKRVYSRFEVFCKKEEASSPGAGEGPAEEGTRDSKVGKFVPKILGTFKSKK
UniProt Q96HJ9: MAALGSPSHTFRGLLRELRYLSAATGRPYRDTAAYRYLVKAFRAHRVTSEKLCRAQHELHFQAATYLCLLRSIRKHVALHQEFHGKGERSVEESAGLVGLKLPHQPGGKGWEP
UniProt Q9UKT8: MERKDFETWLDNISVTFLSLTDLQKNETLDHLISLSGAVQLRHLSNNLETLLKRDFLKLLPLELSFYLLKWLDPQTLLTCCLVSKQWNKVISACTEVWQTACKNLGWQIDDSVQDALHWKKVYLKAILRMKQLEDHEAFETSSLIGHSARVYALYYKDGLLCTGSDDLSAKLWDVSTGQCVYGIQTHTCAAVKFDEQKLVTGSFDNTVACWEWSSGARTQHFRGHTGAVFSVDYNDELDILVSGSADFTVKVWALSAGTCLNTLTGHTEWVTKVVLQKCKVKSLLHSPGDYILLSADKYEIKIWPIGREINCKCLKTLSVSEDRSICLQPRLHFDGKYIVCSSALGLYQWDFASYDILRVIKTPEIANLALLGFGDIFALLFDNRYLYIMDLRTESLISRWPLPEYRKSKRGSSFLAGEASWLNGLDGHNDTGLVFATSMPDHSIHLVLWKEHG
UniProt Q9NVF7: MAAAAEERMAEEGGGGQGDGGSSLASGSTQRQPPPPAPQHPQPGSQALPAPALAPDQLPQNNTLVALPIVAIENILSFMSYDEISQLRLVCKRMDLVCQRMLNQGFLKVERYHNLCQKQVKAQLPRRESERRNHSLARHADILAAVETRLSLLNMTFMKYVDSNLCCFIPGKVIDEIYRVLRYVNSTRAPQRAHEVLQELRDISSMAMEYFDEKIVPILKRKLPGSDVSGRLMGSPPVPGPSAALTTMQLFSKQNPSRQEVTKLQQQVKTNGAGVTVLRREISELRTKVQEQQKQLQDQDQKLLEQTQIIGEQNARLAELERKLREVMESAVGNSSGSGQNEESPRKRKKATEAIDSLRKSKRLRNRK
UniProt Q9P0K8: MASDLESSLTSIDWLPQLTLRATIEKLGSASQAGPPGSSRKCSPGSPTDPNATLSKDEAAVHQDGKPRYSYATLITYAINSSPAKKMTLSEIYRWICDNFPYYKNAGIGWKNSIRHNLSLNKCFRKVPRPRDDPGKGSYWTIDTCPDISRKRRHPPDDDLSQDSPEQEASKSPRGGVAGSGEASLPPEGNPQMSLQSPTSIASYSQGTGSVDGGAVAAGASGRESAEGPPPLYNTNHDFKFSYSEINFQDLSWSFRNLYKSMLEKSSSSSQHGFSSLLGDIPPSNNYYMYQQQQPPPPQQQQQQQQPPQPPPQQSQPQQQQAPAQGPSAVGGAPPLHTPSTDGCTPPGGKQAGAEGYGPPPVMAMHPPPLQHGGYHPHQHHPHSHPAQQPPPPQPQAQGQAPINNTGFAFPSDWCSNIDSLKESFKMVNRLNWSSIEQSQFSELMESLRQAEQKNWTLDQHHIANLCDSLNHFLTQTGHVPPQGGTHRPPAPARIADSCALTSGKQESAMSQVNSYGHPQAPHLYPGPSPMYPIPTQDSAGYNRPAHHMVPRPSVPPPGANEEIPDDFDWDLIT

Assays:
Test in all cases: log2 fold change, soluble protein after heating vs DMSO (PISA); higher = thermal stabilisation; K562 lysate, 10 uM; active = over 0.2 and 3.5 SD of the protein, either way, in both replicates (recomputed)
[1] = compound: CS(=O)(=O)CCNCc1ccc(-c2ccc3ncnc(Nc4ccc(OCc5cccc(F)c5)c(Cl)c4)c3c2)o1 [lapatinib]
Procedure, shortened: (§1)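 K562 pellets were dounce-homogenised in PBS pH 7.4 with 1 mM MgCl2, and the crude extract at 1 mg/mL protein was treated with 10 μM compound for 30 min. Aliquots were heated for 3 min across 48°C-58°C, pooled, and brought to 0.5% NP-40 at 4°C; soluble protein was the supernatant after 21,000xg for 90 min. Soluble protein was quantified by TMTpro 16plex LC-MS/MS with channel sums equalised, and reported as log2 fold change in thermal stability against DMSO controls, with values from duplicates.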

[2] = compound: C[C@H](C1=CC=C(C=C1)C(=O)NC2=C3C=CNC3=NC=C2)N
Procedure, shortened: as §1

[3] = compound: Cc1cc(Nc2cc(CN3CCOCC3)c3nc(C)c(Cc4ccc(Cl)cc4F)n3n2)n[nH]1 [gandotinib]
Procedure, shortened: as §1

[4] = compound: Cc1cc(Nc2cc(N3CCN(C)CC3)nc(Sc3ccc(NC(=O)C4CC4)cc3)n2)n[nH]1 [tozasertib]
Procedure, shortened: as §1

[5] = compound: Cc1cccc(CC(=O)N2CCc3c2ccc(-c2cn(C)c4ncnc(N)c24)c3F)n1
Procedure, shortened: as §1

[6] = compound: Cc1cn(-c2cc(NC(=O)c3ccc(C)c(Nc4nccc(-c5cccnc5)n4)c3)cc(C(F)(F)F)c2)cn1 [nilotinib]
Procedure, shortened: as §1

[7] = compound: Cc1nc(Nc2n[nH]c3c2CN(C(=O)N[C@H](CN(C)C)c2ccccc2)C3(C)C)c2sccc2n1
Procedure, shortened: as §1

[8] = compound: Cc1ncc(-c2ccnc(Nc3ccc(S(C)(=O)=O)cc3)n2)n1C(C)C
Procedure, shortened: as §1

[9] = compound: Cn1cncc1[C@@](N)(c1ccc(Cl)cc1)c1ccc2c(c1)c(-c1cccc(Cl)c1)cc(=O)n2C [tipifarnib]
Procedure, shortened: as §1

[10] = compound: NC(=O)c1cnc(N[C@@H]2CCCC[C@@H]2N)nc1Nc1cccc(-n2nccn2)c1
Procedure, shortened: as §1

[11] = compound: CS(=O)(=O)N1CCN(Cc2cc3nc(-c4cccc5[nH]ncc45)nc(N4CCOCC4)c3s2)CC1 [pictilisib]
Procedure, shortened: as §1

[12] = compound: Cc1ccc(NC(=O)c2ccc(CN3CC[C@H](N(C)C)C3)c(C(F)(F)F)c2)cc1Nc1nccc(-c2cncnc2)n1 [bafetinib]
Procedure, shortened: as §1

[13] = compound: C[C@@H](Oc1cc(-c2cnn(C3CCNCC3)c2)cnc1N)c1c(Cl)ccc(F)c1Cl [crizotinib]
Procedure, shortened: as §1

[14] = compound: C[C@H](Nc1ncnc2nc[nH]c12)c1cc2cccc(Cl)c2c(=O)n1-c1ccccc1 [duvelisib]
Procedure, shortened: as §1

[15] = compound: Cc1ccc(-n2nc(C(C)(C)C)cc2NC(=O)Nc2ccc(OCCN3CCOCC3)c3ccccc23)cc1 [doramapimod]
Procedure, shortened: as §1

[16] = compound: Cc1nc(Nc2ncc(C(=O)Nc3c(C)cccc3Cl)s2)cc(N2CCN(CCO)CC2)n1 [dasatinib]
Procedure, shortened: as §1

[17] = compound: Cn1cc(-c2ccc3c(c2)CCN3C(=O)Cc2cccc(C(F)(F)F)c2)c2c(N)ncnc21
Procedure, shortened: as §1

[18] = compound: Cn1cc(CNCC2CCN(c3ncc(C(=O)NO)cn3)CC2)c2ccccc21 [quisinostat]
Procedure, shortened: as §1

[19] = compound: NC(=O)Nc1cc(-c2cccc(F)c2)sc1C(=O)N[C@H]1CCCNC1
Procedure, shortened: as §1

[20] = compound: NC1(c2ccc(-c3nc4ccn5c(=O)[nH]nc5c4cc3-c3ccccc3)cc2)CCC1
Procedure, shortened: as §1

Measured: log2 fold change

FEN1 (UniProt I3L3E9)
inactive: [1] 0.01 | [2] -0.021 | [3] -0.212 | [4] 0.128 | [5] -0.038 | [6] -0.144 | [7] -0.043 | [8] 0.083 | [9] -0.105 | [10] 0.117

FITM2 (UniProt Q8N6M3)
inactive: [1] -0.06 | [11] -0.005 | [12] -0.144 | [6] -0.272 | [7] -0.255 | [8] 0.39 | [9] 0.211 | [10] 0.055

FMNL2 isoform 3 (UniProt Q96PY5)
inactive: [1] -0.077 | [13] -0.17 | [14] -0.085 | [15] 0.091 | [6] -0.1 | [7] -0.087 | [16] 0.101 | [8] -0.018 | [17] -0.028 | [18] -0.1 | [9] -0.012 | [19] -0.047 | [10] 0.002 | [20] -0.021

FILIP1L (UniProt Q4L180)
inactive: [1] 0.013 | [14] 0.031 | [4] -0.059 | [16] 0.163 | [17] 0.14 | [10] -0.218

FIP1L1 isoform 3 (UniProt Q6UN15)
inactive: [1] -0.398 | [13] 0.042 | [4] -0.093 | [15] 0.103 | [6] -0.257 | [7] -0.093 | [8] 0.308 | [18] 0.012 | [9] -0.029 | [19] -0.002 | [10] 0.239 | [20] 0.139

FBXO44 isoform 2 (UniProt Q9H4M3)
inactive: [1] -0.006 | [11] -0.337 | [2] -0.043 | [14] 0 | [3] 0.012 | [12] 0.113 | [5] 0.137 | [6] -0.005 | [7] -0.198 | [16] 0.024 | [8] -0.085 | [17] -0.112 | [9] -0.056 | [10] 0.013 | [20] 0.081

FEN1 (UniProt P39748)
inactive: [1] -0.041 | [11] 0.02 | [13] -0.036 | [2] -0.014 | [14] 0.02 | [3] -0.062 | [4] -0.032 | [15] 0.043 | [12] -0.011 | [5] 0.004 | [6] 0.037 | [7] -0.041 | [8] 0.003 | [17] 0.019 | [18] -0.042 | [9] 0.02 | [19] 0.045 | [10] -0.035 | [20] -0.002

FKBP2 (UniProt P26885)
inactive: [1] 0.031 | [11] -0.014 | [13] 0.083 | [2] 0.156 | [14] -0.03 | [3] -0.001 | [4] -0.008 | [15] 0.028 | [12] 0.161 | [5] -0.048 | [6] -0.036 | [7] -0.055 | [16] -0.018 | [8] -0.044 | [17] -0.001 | [18] -0.06 | [9] 0.014 | [19] 0.055 | [10] -0.044 | [20] -0.008

FLT4 (UniProt P35916)
inactive: [1] -0.007 | [11] 0.057 | [2] -0.173 | [14] 0.026 | [3] 0.019 | [4] -0.056 | [12] -0.035 | [5] -0.041 | [16] -0.202 | [17] 0.013 | [10] 0.162 | [20] 0.106

FAM83H (UniProt Q6ZRV2)
inactive: [1] 0.048 | [2] -0.153 | [3] 0.056 | [4] 0.097 | [5] 0.12 | [10] 0.15

FMC1 (UniProt Q96HJ9)
inactive: [1] -0.011 | [11] -0.001 | [13] -0.013 | [2] -0.057 | [14] -0.134 | [3] -0.056 | [4] -0.05 | [15] -0.092 | [12] -0.051 | [5] 0.037 | [16] 0.106 | [17] 0.008 | [18] 0.058 | [19] -0.035 | [10] 0.021 | [20] -0.024

FBLN1 (UniProt P23142)
inactive: [11] -0.02 | [13] 0.006 | [2] -0.083 | [3] 0.169 | [15] 0.057 | [12] -0.009 | [5] 0.213 | [6] 0.05 | [7] -0.13 | [8] 0.055 | [18] 0.01 | [9] -0.132 | [19] -0.13

FBXW2 (UniProt Q9UKT8)
inactive: [11] -0.034 | [13] 0.035 | [2] -0.001 | [14] 0.075 | [3] -0.069 | [15] 0.074 | [12] -0.021 | [5] -0.026 | [16] 0.216 | [17] 0.016 | [18] -0.101 | [19] 0.048

FBXL15 (UniProt Q9H469)
inactive: [13] 0 | [2] -0.098 | [14] -0.025 | [3] 0.217 | [4] -0.048 | [15] 0.022 | [5] 0.063 | [6] -0.003 | [7] 0.034 | [16] 0 | [8] -0.014 | [17] 0.051 | [18] -0.099 | [9] 0.017 | [19] -0.014

FANCG (UniProt O15287)
inactive: [13] -0.12 | [2] 0.08 | [3] 0.051 | [4] 0.008 | [15] -0.215 | [5] -0.084 | [6] -0.172 | [7] 0.101 | [8] 0.013 | [18] -0.094 | [9] 0.083 | [19] 0.052

Random excerpt: two entries already listed.
FANCG (UniProt O15287)
inactive: [13] -0.12 | [2] 0.08 | [3] 0.051 | [4] 0.008 | [15] -0.215 | [5] -0.084 | [6] -0.172 | [7] 0.101 | [8] 0.013 | [18] -0.094 | [9] 0.083 | [19] 0.052

FBLN1 (UniProt P23142)
inactive: [11] -0.02 | [13] 0.006 | [2] -0.083 | [3] 0.169 | [15] 0.057 | [12] -0.009 | [5] 0.213 | [6] 0.05 | [7] -0.13 | [8] 0.055 | [18] 0.01 | [9] -0.132 | [19] -0.13

More records.

FBXO28 (UniProt Q9NVF7)
inactive: [1] 0.004 | [10] 0.061

FARP1 isoform 2 (UniProt Q9Y4F1)
inactive: [11] -0.194 | [13] -0.026 | [14] 0.028 | [4] -0.024 | [15] 0.003 | [12] 0.056 | [16] -0.047 | [17] -0.034 | [18] 0.026 | [19] -0.006

FOXJ2 (UniProt Q9P0K8)
inactive: [11] 0.043 | [2] -0.037 | [14] 0.039 | [3] 0.044 | [4] 0.127 | [12] -0.224 | [5] 0.056 | [6] 0.033 | [7] 0.29 | [16] 0.056 | [8] 0.077 | [17] 0.018 | [9] -0.293 | [20] -0.111
